Results published in PubChem BioAssay AID2417 (National Center for Advancing Translational Sciences (NCATS), 2010).
Hit rate of the full screen: of about 140,000 compounds, about 4,300 (3.1%) were called active. The inconclusive results got no clear call from the source; some entries with a clear call stand among them for comparison.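 How the source made its calls: active means readout at or below -70, meaning at least 70% loss of cells showing the perinucleolar compartment, a nuclear body marking cancer cells; inconclusive means readout between -30 and a set limit; inactive means the rest.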

Experiment: High Content Assay for Compounds that inhibit the Assembly of the Perinucleolar Compartment;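 further: plate controls were DMSO wells for no effect and camptothecin positive control wells for full effect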
Details: PC3M PTB-GFP, PNC prevalence imaging, 16 h; at 10 µM; hits give low values
Method in brief: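 Read-out is percentage of cells bearing a perinucleolar compartment, from automated 20x imaging of fixed, Hoechst-stained PC3M PTB-GFP cells. Cells were seeded 4 h, then exposed 16 h to compound (23 nl of library stock) in duplicate plates.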

Compound | activity change (PNC), negative = inhibition
Cn1c(SCC(=O)O)nnc1C1CCCCC1 | inconclusive: -38.3%
CCOC(=O)CNc1c(-c2ccccc2)nc2ccc(Cl)cn12 | inactive: 65.5%
Cc1ccc2nc(SC(C(=O)c3ccccc3)c3ccccc3)nc(C)c2c1 (stereo not drawn) | inactive: -27%
Cn1c(=O)n(Cc2ccccc2F)c2ccccc21 | inconclusive: -36.5%
CCCCOC(=O)Nc1ccc(C(=O)OC)cc1 | inactive: 28.9%
Cc1cccc(C)c1-n1nnnc1SCSc1nnnn1-c1c(C)cccc1C | inactive: -16.9%
COc1ccc(CC(=O)Nc2cccc(-c3nnc(-c4ccccc4)o3)c2)cc1OC | inactive: 21.1%
COCCNC(=O)c1ccccc1NC(=O)CN(c1ccc2c(c1)OCO2)S(C)(=O)=O | inconclusive: -38.9%
COc1ccccc1/C=N/OCC(=O)NCc1ccc2c(c1)OCO2 | inconclusive: -78.6%
Cc1c(CNC(=O)c2nn3c(c2Cl)NC(c2ccccc2)CC3C(F)(F)F)cnn1C (stereo not drawn) | inconclusive: -45%
COc1ccc(S(=O)(=O)NC(CC(=O)NCc2ccco2)c2ccco2)cc1 (stereo not drawn) | inconclusive: -62.8%
Cc1csc(-c2coc3cc(O)cc(C)c3c2=O)n1 | inconclusive: -35.8%
Cc1ccc2nc(NC(=O)c3cccs3)sc2c1 | inactive: -10.9%
O=C(NC(=S)Nc1ccccc1)c1cc(-c2ccccc2)nc2ccccc12 | inconclusive: -33.4%
COc1ccc(/C=N/Nc2ccccc2)cc1Cn1nc(C)c([N+](=O)[O-])c1C | active: -97.9%
CCn1c(COc2ccccc2OC)nnc1SCC#N | inactive: -17.8%
O=C1c2[nH]nc(-c3ccccc3O)c2C(c2ccc(F)cc2)N1Cc1ccco1 (stereo not drawn) | inconclusive: -34.9%
CCOC(=O)N1CCN(S(=O)(=O)c2cc(-c3nn4c(C)nnc4c4ccccc34)ccc2C)CC1 | inconclusive: -30%
O=C(NCC(=O)N(c1cccnc1)C(C(=O)NC1CCCCC1)c1cccnc1)c1ccco1 (stereo not drawn) | inconclusive: -37.1%
CCCN(CCC)S(=O)(=O)c1ccc(C(=O)Nc2nnc(-c3cccc(OC)c3)o2)cc1 | inconclusive: -37.8%

Compound | activity change (PNC), negative = inhibition
O=C(Nc1ccc2c(c1)OCO2)c1ccc2nc[nH]c2c1 | inconclusive: -42.3%
Cc1cc(C)cc(NC(=O)CCN2CC(C)OC(C)C2)c1 (stereo not drawn) | inconclusive: -35.6%
CCCOc1ccc(C(=O)C(CN2CCCC2)c2ccccc2)cc1 (stereo not drawn) | active: -113%
Cc1nn(Cc2ccccc2)c(C)c1C(=O)OCC(=O)c1cc(C)n(C2CC2)c1C | inconclusive: -49.1%
Cc1cccc(C(=O)c2c(N)sc3c2CCCC3)c1 | inactive: -7.71%
COc1ccc(CN2CCN(C(=O)c3cc(OC)c(OC)c(OC)c3)CC2)cc1OC | active: -100%
CC(C)=C1SC(N2CCCCC2)=NC1=O | inactive: -4.04%
O=S1(=O)C[C@@H](O)[C@@H](Nc2ccc(Cl)cc2)C1 | inconclusive: -41.4%
COc1ccccc1CNC(=O)c1cc2c(C)nn(Cc3ccc(F)cc3)c2s1 | inconclusive: -32.3%
O=C1CN(C(=O)c2ccco2)c2ccccc2N1 | inconclusive: -58.3%
Nn1cnc2c([nH]c3ccccc32)c1=O | inactive: 45.3%
O=C(c1ccccc1F)N1CCN(S(=O)(=O)c2ccc3c(c2)OCCO3)CC1 | inconclusive: -69.6%
CCOCC(=O)Nc1cccc(OC)c1 | active: -88.5%
COCCN1Cc2cccc(C(=O)Nc3c(C)cc(C)cc3C)c2C1=O | inconclusive: -55.9%
CCCCC1CC1C(=O)Nc1ncc2c(n1)CC(C)(C)CC2=O (stereo not drawn) | inconclusive: -42.3%
O=C(/C=C/c1ccc(S(=O)(=O)N2CCOCC2)cc1)NCc1ccccc1Cl | inactive: 41.9%
CC(C)(C)C(=O)Nc1ccc(C(=O)N/N=C/C2CC3C=CC2C3)cc1 (stereo not drawn) | inconclusive: -56.9%
CCOC(=O)C(C(=O)NCC1CCCO1)C1CCCCC1 (stereo not drawn) | inconclusive: -33.6%
Cc1cc(C)c(OCC(=O)OCCNC(=O)c2cccnc2)c(C)c1 | inconclusive: -59.4%
Clc1ccc(OCc2nn3c(-c4ccco4)nnc3s2)cc1 | inconclusive: -66.9%

In a second layout: 3 of the compounds above
Compound	activity change (PNC), negative = inhibition
CCCCC1CC1C(=O)Nc1ncc2c(n1)CC(C)(C)CC2=O (stereo not drawn)	inconclusive: -42.3%
O=C(/C=C/c1ccc(S(=O)(=O)N2CCOCC2)cc1)NCc1ccccc1Cl	inactive: 41.9%
CC(C)(C)C(=O)Nc1ccc(C(=O)N/N=C/C2CC3C=CC2C3)cc1 (stereo not drawn)	inconclusive: -56.9%

The list continues.

Compound | activity change (PNC), negative = inhibition
Nn1c(COc2ccccc2)nc2ccccc2c1=O | active: -88.8%
Cc1ccc(S(=O)(=O)Nc2c(C)nn(C)c2C)cc1 | inconclusive: -43.5%
Cc1ccc(NC(=O)c2ccc(OC(=O)COc3cccc(Cl)c3)cc2)cc1 | inconclusive: -40.8%
COc1ccc(OC)c(NC(=O)CC2SC(=Nc3ccc(F)cc3)N(CCC3=CCCCC3)C2=O)c1 (stereo not drawn) | inconclusive: -40.8%
CC(C)(C)c1nc2ccccc2c2nnc(SCC(=O)Nc3nccs3)n12 | inconclusive: -42.7%
O=C(c1ccco1)N1CCN(c2ccc(S(=O)(=O)N3CCCC3)cc2)CC1 | inconclusive: -35.9%
COc1ccccc1NC(=O)/C(C#N)=C/C=C/c1ccco1 | inconclusive: -63%
O=C(c1nc2nc(-c3ccccc3)cc(C(F)(F)F)n2n1)N1CCOCC1 | inconclusive: -34.9%
COc1cccc(NC2SC(=O)N(c3ccccc3)C2=O)c1 (stereo not drawn) | inconclusive: -47.7%
Cc1ccc(N2C(=O)CC(Sc3ccccc3C(=O)O)C2=O)cc1 (stereo not drawn) | inactive: 17.1%
COc1ccc(/C=C/C(=O)Oc2cccc(/C=N/NC(=O)c3cccc(F)c3)c2)cc1 | inconclusive: -48.1%
CN1c2ccccc2C(C)(C)C12CC(CCl)=NO2 (stereo not drawn) | inactive: 26.9%
Cn1c(C(=O)N2CCCC(C(=O)N3CCN(C(=O)c4ccco4)CC3)C2)cc2sccc21 (stereo not drawn) | inconclusive: -54.8%
CCOC(=O)c1ccc(CC(=O)c2ccc(O)cc2O)o1 | inconclusive: -50.4%
O=C(O)c1ccc2c(c1)C(=O)N(NC(=O)c1ccc(O)cc1)C2=O | inconclusive: -42.6%
CC(C)c1[nH]c(=O)c(C#N)c2c1CSC(C)(C)C2 | inconclusive: -78.7%
Cc1ccc(C(=O)OCC(=O)NCCN2C(=O)CSC2=O)cc1 | inconclusive: -32.7%
CCOC(=O)c1c(=O)n(O)c2ccc(C)cc2[n+]1[O-] | inconclusive: -50.2%
